Assay results

From PubChem BioAssay record AID504749 (NCATS, 2011).

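Malaria parasite (P. falciparum) lines kept in red blood cells; parasite DNA is measured by SYBR Green fluorescence after lysis, 72 h after compound addition. Each compound was titrated across a series from about 0.000037 to 29 µM. The number is the fitted AC50, the concentration giving a half-maximal change in signal; a lower value means higher potency, whether the curve shows a decrease or an increase. Calls follow the curve class and fit quality: every row here is inconclusive, covering signal-raising curves and weak, poorly fitted, partial or highest-dose-only inhibition curves.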

Values are in µM. Every entry below has the call inconclusive. These entries are mostly ones the record files as inconclusive; other results of the assay are not listed here. Potencies fitted to partial, single-point or poorly fitting curves are rough. The first word of each remark tells which way the curve ran; it can be opposite to the aim of the assay.

SMILES: O=S(=O)(O)c1cc(O)c2c(N=Nc3ccc(Nc4ccccc4)c4c(S(=O)(=O)O)cccc34)cc(S(=O)(=O)O)cc2c1
condition: AS120
potency (µM): 11.22
curve as filed: inhibitor, single point

SMILES: O=S(=O)(O)c1cc(O)c2c(N=Nc3ccc(Nc4ccccc4)c4c(S(=O)(=O)O)cccc34)cc(S(=O)(=O)O)cc2c1
condition: CP252
potency (µM): 11.22
curve as filed: inhibitor, single point

SMILES: O=S(=O)(O)c1cc(O)c2c(N=Nc3ccc(Nc4ccccc4)c4c(S(=O)(=O)O)cccc34)cc(S(=O)(=O)O)cc2c1
condition: CP201
potency (µM): 8.492
curve as filed: inhibitor, partial curve

SMILES: O=S(=O)(O)c1cc(O)c2c(N=Nc3ccc(Nc4ccccc4)c4c(S(=O)(=O)O)cccc34)cc(S(=O)(=O)O)cc2c1
condition: CP247
potency (µM): 11.22
curve as filed: inhibitor, partial curve, poor fit

SMILES: O=S(=O)(O)c1cc(O)c2c(N=Nc3ccc(Nc4ccccc4)c4c(S(=O)(=O)O)cccc34)cc(S(=O)(=O)O)cc2c1
condition: CP260
potency (µM): 10
curve as filed: inhibitor, single point

SMILES: O=S(=O)(O)c1cc(O)c2c(N=Nc3ccc(Nc4ccccc4)c4c(S(=O)(=O)O)cccc34)cc(S(=O)(=O)O)cc2c1
condition: P94_40
potency (µM): 17.78
curve as filed: inhibitor, single point

SMILES: O=S(=O)(O)c1cc(O)c2c(N=Nc3ccc(Nc4ccccc4)c4c(S(=O)(=O)O)cccc34)cc(S(=O)(=O)O)cc2c1
condition: ICS
potency (µM): 12.59
curve as filed: inhibitor, partial curve

SMILES: O=S(=O)(O)c1cc(O)c2c(N=Nc3ccc(Nc4ccccc4)c4c(S(=O)(=O)O)cccc34)cc(S(=O)(=O)O)cc2c1
condition: CP211
potency (µM): 16.94
curve as filed: inhibitor, single point

SMILES: O=S(=O)(O)c1cc(O)c2c(N=Nc3ccc(Nc4ccccc4)c4c(S(=O)(=O)O)cccc34)cc(S(=O)(=O)O)cc2c1
condition: CP262
potency (µM): 19.01
curve as filed: activator, partial curve, poor fit

SMILES: O=S(=O)(O)c1cc(O)c2c(N=Nc3ccc(Nc4ccccc4)c4c(S(=O)(=O)O)cccc34)cc(S(=O)(=O)O)cc2c1
condition: PC26
potency (µM): 12
curve as filed: inhibitor, single point

SMILES: O=S(=O)(O)c1cc(O)c2c(N=Nc3ccc(Nc4ccccc4)c4c(S(=O)(=O)O)cccc34)cc(S(=O)(=O)O)cc2c1
condition: CP256
potency (µM): 11.22
curve as filed: inhibitor, partial curve, poor fit

SMILES: O=S(=O)(O)c1cc(O)c2c(N=Nc3ccc(Nc4ccccc4)c4c(S(=O)(=O)O)cccc34)cc(S(=O)(=O)O)cc2c1
condition: DFO2036
potency (µM): 17.78
curve as filed: inhibitor, single point

SMILES: O=S(=O)(O)c1cc(O)c2c(N=Nc3ccc(Nc4ccccc4)c4c(S(=O)(=O)O)cccc34)cc(S(=O)(=O)O)cc2c1
condition: P93_24
potency (µM): 12.59
curve as filed: inhibitor, single point

SMILES: O=S(=O)(O)c1cc(O)c2c(N=Nc3ccc(Nc4ccccc4)c4c(S(=O)(=O)O)cccc34)cc(S(=O)(=O)O)cc2c1
condition: PC15
potency (µM): 17.78
curve as filed: inhibitor, single point

SMILES: O=S(=O)(O)c1cc(O)c2c(N=Nc3ccc(Nc4ccccc4)c4c(S(=O)(=O)O)cccc34)cc(S(=O)(=O)O)cc2c1
condition: CP194
potency (µM): 16.94
curve as filed: inhibitor, single point

SMILES: O=S(=O)(O)c1cc(O)c2c(N=Nc3ccc(Nc4ccccc4)c4c(S(=O)(=O)O)cccc34)cc(S(=O)(=O)O)cc2c1
condition: CP305
potency (µM): 13.46
curve as filed: inhibitor, single point

Once more, the final 2:

| SMILES | condition | potency (µM) | curve as filed |
|---|---|---|---|
| `O=S(=O)(O)c1cc(O)c2c(N=Nc3ccc(Nc4ccccc4)c4c(S(=O)(=O)O)cccc34)cc(S(=O)(=O)O)cc2c1` | CP194 | 16.94 | inhibitor, single point |
| `O=S(=O)(O)c1cc(O)c2c(N=Nc3ccc(Nc4ccccc4)c4c(S(=O)(=O)O)cccc34)cc(S(=O)(=O)O)cc2c1` | CP305 | 13.46 | inhibitor, single point |